Measurements published in the supplement of paper PMC4604168 (melanoma cell lines).
Some of the results follow. Single values are uncertain, as repeats are few or missing.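 Imaging used 1,536-well plates; nuclei positive for cleaved PARP by antibody were divided by total DNA-stained nuclei to yield the apoptosis fraction. Doses for screening kept most cells viable, and cell lines differ markedly in resting and induced cleaved-PARP levels.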

Columns and labels:
Experiment in all cases: cleaved PARP positive nuclei fraction relative to DMSO control; melanoma cells; higher = more apoptosis
Details in all cases: library dose: low library concentration; 72 h
MZ2-MEL = tested on: MZ2-MEL
MeWo = tested on: MeWo
RPMI7951 = tested on: RPMI7951
RVH-421 = tested on: RVH-421
SkMel28 = tested on: SkMel28
SkMel2 = tested on: SkMel2
SkMel30 = tested on: SkMel30
UACC62 = tested on: UACC62
WM115 = tested on: WM115
WM1716 = tested on: WM1716
WM1745 = tested on: WM1745
WM3526 = tested on: WM3526
WM3619 = tested on: WM3619
WM451Lu = tested on: WM451Lu

Structure (SMILES) | cleaved PARP positive nuclei fraction (MZ2-MEL) | cleaved PARP positive nuclei fraction (MeWo) | cleaved PARP positive nuclei fraction (RPMI7951) | cleaved PARP positive nuclei fraction (RVH-421) | cleaved PARP positive nuclei fraction (SkMel28) | cleaved PARP positive nuclei fraction (SkMel2) | cleaved PARP positive nuclei fraction (SkMel30) | cleaved PARP positive nuclei fraction (UACC62) | cleaved PARP positive nuclei fraction (WM115) | cleaved PARP positive nuclei fraction (WM1716) | cleaved PARP positive nuclei fraction (WM1745) | cleaved PARP positive nuclei fraction (WM3526) | cleaved PARP positive nuclei fraction (WM3619) | cleaved PARP positive nuclei fraction (WM451Lu)
CN1CCN(c2ccc3nc(-c4c(N)c5c(F)cccc5[nH]c4=O)[nH]c3c2)CC1 [Dovitinib] + Nc1ncn([C@H]2C[C@H](O)[C@@H](CO)O2)c(=O)n1 [decitabine] (first compound 0.1 µM, partner dose 0.1 µM) | 60.2% | 1000% | 209% | 100% | 101% | 95.1% | 267% | 259% | 114% | 921% | 124% | 105% | 110% | 178%
C=C(c1ccc(C(=O)O)cc1)c1cc2c(cc1C)C(C)(C)CCC2(C)C [Bexarotene] + Cn1nnc2c(C(N)=O)ncn2c1=O [temozolomide] (first compound 2 µM, partner dose 2 µM) | 63.8% | 77.7% | 111% | 134% | 313% | 121% | 53.6% | 163% | 76.6% | 533% | 105% | 51.4% | 141% | 114%
CN1CCN(c2ccc3nc(-c4c(N)c5c(F)cccc5[nH]c4=O)[nH]c3c2)CC1 [Dovitinib] + Nc1nc(F)nc2c1ncn2[C@@H]1O[C@H](CO)[C@@H](O)[C@@H]1O [fludarabine] (first compound 0.1 µM, partner dose 0.2 µM) | 71% | 308% | 120% | 124% | 162% | 290% | 820% | 119% | 134% | 111% | 98.7% | 125% | 104% | 387%
Nc1ncn([C@H]2C[C@H](O)[C@@H](CO)O2)c(=O)n1 [decitabine] + Nc1cccc2c1CN(C1CCC(=O)NC1=O)C2=O [lenalidomide] (first compound 0.1 µM, partner dose 1 µM) | 37.3% | 269% | 98.8% | 75.9% | 44% | 106% | 118% | 81.5% | 120% | 41.4% | 119% | 303% | 102% | 42.8%
Nc1ncn([C@H]2C[C@H](O)[C@@H](CO)O2)c(=O)n1 [decitabine] + Cn1nnc2c(C(N)=O)ncn2c1=O [temozolomide] (first compound 0.1 µM, partner dose 2 µM) | 61.3% | 162% | 124% | 53.6% | 88.1% | 82.6% | 67.9% | 107% | 55.6% | 76.9% | 76.2% | 129% | 134% | 368%
Cn1c(=O)n(-c2ccc(C(C)(C)C#N)cc2)c2c3cc(-c4cnc5ccccc5c4)ccc3ncc21 + Nc1ccn([C@@H]2O[C@H](CO)[C@@H](O)C2(F)F)c(=O)n1 [gemcitabine] (first compound 0.004 µM, partner dose 0.0004 µM) | 87.7% | 106% | 108% | 126% | 95.5% | 73.7% | 64.9% | 401% | 152% | 71.4% | 119% | 58.5% | 130% | 91.7%
O=C(O)[C@@H]1[O][Sb](=[O])([O][Sb]2(=[O])[O][C@H]([C@H](O)CO)[C@H](O)[C@H](C(=O)O)[O]2)[O][C@H]([C@H](O)CO)[C@@H]1O (stereo partly specified) [stibogluconate] + C=C(c1ccc(C(=O)O)cc1)c1cc2c(cc1C)C(C)(C)CCC2(C)C [Bexarotene] (first compound 2 µM, partner dose 2 µM) | 104% | 96.2% | 121% | 280% | 101% | 156% | 106% | 219% | 66.8% | 53.8% | 119% | 127% | 93% | 55.7%
CN1CCN(c2ccc3nc(-c4c(N)c5c(F)cccc5[nH]c4=O)[nH]c3c2)CC1 [Dovitinib] + C#Cc1cccc(Nc2ncnc3cc(OCCOC)c(OCCOC)cc23)c1 [erlotinib] (first compound 0.1 µM, partner dose 0.8 µM) | 121% | 124% | 118% | 109% | 93.2% | 131% | 114% | 115% | 85.9% | 54.6% | 379% | 83.6% | 94.9% | 65%
Cn1c(=O)n(-c2ccc(C(C)(C)C#N)cc2)c2c3cc(-c4cnc5ccccc5c4)ccc3ncc21 + COc1ccc(Cl)c(Nc2nc3ccccc3nc2NS(=O)(=O)c2cccc(NC(=O)C(C)(C)N)c2)c1 [XL147] (first compound 0.004 µM, partner dose 0.8 µM) | 102% | 68.7% | 70.3% | 114% | 104% | 179% | 208% | 144% | 84.9% | 121% | 106% | 83.6% | 92.9% | 29.9%
Nc1nc(F)nc2c1ncn2[C@@H]1O[C@H](CO)[C@@H](O)[C@@H]1O [fludarabine] + Cn1c(Nc2ccc(C(F)(F)F)cc2)nc2cc(Oc3ccnc(-c4ncc(C(F)(F)F)[nH]4)c3)ccc21 [CHIR265] (first compound 0.2 µM, partner dose 0.08 µM) | 91.9% | 646% | 194% | 344% | 446% | 1000% | 1130% | 245% | 492% | 127% | 116% | 636% | 133% | 161%
Nc1ccn([C@@H]2O[C@H](CO)[C@@H](O)C2(F)F)c(=O)n1 [gemcitabine] + CC(=O)c1c(C)c2cnc(Nc3ccc(N4CCNCC4)cn3)nc2n(C2CCCC2)c1=O [palbociclib] (first compound 0.0004 µM, partner dose 0.04 µM) | 129% | 34.2% | 239% | 47.3% | 45.8% | 101% | 157% | 49.5% | 44% | 25.9% | 126% | 43% | 111% | 35.1%
CC(C)C[C@H](NC(=O)[C@H](Cc1ccccc1)NC(=O)c1cnccn1)B(O)O [Bortezomib] + COc1ccc(Cl)c(Nc2nc3ccccc3nc2NS(=O)(=O)c2cccc(NC(=O)C(C)(C)N)c2)c1 [XL147] (first compound 0.001 µM, partner dose 0.8 µM) | 144% | 66.9% | 134% | 206% | 90.6% | 116% | 29.2% | 180% | 37% | 98.9% | 144% | 89.4% | 375% | 208%
Nc1ncn([C@H]2C[C@H](O)[C@@H](CO)O2)c(=O)n1 [decitabine] + Cn1c(Nc2ccc(C(F)(F)F)cc2)nc2cc(Oc3ccnc(-c4ncc(C(F)(F)F)[nH]4)c3)ccc21 [CHIR265] (first compound 0.1 µM, partner dose 0.08 µM) | 55.8% | 233% | 157% | 320% | 150% | 106% | 155% | 373% | 919% | 120% | 125% | 258% | 111% | 51.1%
CS(=O)(=O)CCNCc1ccc(-c2ccc3ncnc(Nc4ccc(OCc5cccc(F)c5)c(Cl)c4)c3c2)o1 [lapatinib] + CC(=O)c1c(C)c2cnc(Nc3ccc(N4CCNCC4)cn3)nc2n(C2CCCC2)c1=O [palbociclib] (first compound 0.8 µM, partner dose 0.04 µM) | 44.1% | 61.8% | 124% | 88.6% | 216% | 108% | 134% | 73.1% | 76.8% | 91.8% | 124% | 73.4% | 271% | 50.9%
CNC(=O)c1cc(Oc2ccc(NC(=O)Nc3ccc(Cl)c(C(F)(F)F)c3)cc2)ccn1 [sorafenib] + Cc1nc(Nc2ncc(C(=O)Nc3c(C)cccc3Cl)s2)cc(N2CCN(CCO)CC2)n1 [dasatanib] (first compound 0.4 µM, partner dose 0.004 µM) | 132% | 91.9% | 37.1% | 117% | 115% | 68.6% | 84.1% | 58.4% | 164% | 46.2% | 266% | 40.2% | 98.3% | 109%
O=C(O)c1ccc2c(c1)nc(Nc1cccc(Cl)c1)c1ccncc12 + Clc1ccc(Nc2nnc(Cc3ccncc3)c3ccccc23)cc1 [vatalanib] (first compound 0.4 µM, partner dose 2 µM) | 219% | 191% | 511% | 49.1% | 36.3% | 146% | 161% | 41.3% | 113% | 128% | 100% | 199% | 111% | 144%
Nc1ccn([C@@H]2O[C@H](CO)[C@@H](O)C2(F)F)c(=O)n1 [gemcitabine] + C[C@]1(c2nc3c(C(N)=O)cccc3[nH]2)CCCN1 [Veliparib] (first compound 0.0004 µM, partner dose 1.4 µM) | 158% | 70.2% | 308% | 86.1% | 89.4% | 76.2% | 65.5% | 81% | 114% | 117% | 126% | 75% | 229% | 177%
C=C(c1ccc(C(=O)O)cc1)c1cc2c(cc1C)C(C)(C)CCC2(C)C [Bexarotene] + CCCS(=O)(=O)Nc1ccc(F)c(C(=O)c2c[nH]c3ncc(Cl)cc23)c1F [PLX4720] (first compound 2 µM, partner dose 0.08 µM) | 146% | 193% | 138% | 119% | 131% | 233% | 56.6% | 340% | 53.1% | 106% | 97.9% | 105% | 113% | 81.2%
Nc1ncn([C@H]2C[C@H](O)[C@@H](CO)O2)c(=O)n1 [decitabine] + COCC[n+]1c2c(n(Cc3cnccn3)c1C)C(=O)c1ccccc1C2=O [YM155] (first compound 0.1 µM, partner dose 0.0004 µM) | 200% | 130% | 159% | 123% | 102% | 109% | 200% | 101% | 261% | 110% | 105% | 25.9% | 114% | 105%

Two records picked at random from those above, as already listed:
Structure (SMILES) | cleaved PARP positive nuclei fraction (MZ2-MEL) | cleaved PARP positive nuclei fraction (MeWo) | cleaved PARP positive nuclei fraction (RPMI7951) | cleaved PARP positive nuclei fraction (RVH-421) | cleaved PARP positive nuclei fraction (SkMel28) | cleaved PARP positive nuclei fraction (SkMel2) | cleaved PARP positive nuclei fraction (SkMel30) | cleaved PARP positive nuclei fraction (UACC62) | cleaved PARP positive nuclei fraction (WM115) | cleaved PARP positive nuclei fraction (WM1716) | cleaved PARP positive nuclei fraction (WM1745) | cleaved PARP positive nuclei fraction (WM3526) | cleaved PARP positive nuclei fraction (WM3619) | cleaved PARP positive nuclei fraction (WM451Lu)
Nc1ncn([C@H]2C[C@H](O)[C@@H](CO)O2)c(=O)n1 [decitabine] + Cn1nnc2c(C(N)=O)ncn2c1=O [temozolomide] (first compound 0.1 µM, partner dose 2 µM) | 61.3% | 162% | 124% | 53.6% | 88.1% | 82.6% | 67.9% | 107% | 55.6% | 76.9% | 76.2% | 129% | 134% | 368%
Nc1ccn([C@@H]2O[C@H](CO)[C@@H](O)C2(F)F)c(=O)n1 [gemcitabine] + CC(=O)c1c(C)c2cnc(Nc3ccc(N4CCNCC4)cn3)nc2n(C2CCCC2)c1=O [palbociclib] (first compound 0.0004 µM, partner dose 0.04 µM) | 129% | 34.2% | 239% | 47.3% | 45.8% | 101% | 157% | 49.5% | 44% | 25.9% | 126% | 43% | 111% | 35.1%
